System: RAW264.7 cells
Assay: Intracellular drug release by LC-MS
Format: cell-based, mouse
Conditions: prodrug 1 mM

COc1ccc(S(=O)(=O)Nc2ccc(N(CC(=O)N3CCSC3=O)S(=O)(=O)c3ccc(OC)cc3)c3ccccc23)cc1 [pro2]
peak for parent compound 2 in cell lysate (H2O2-stimulated RAW264.7 cells): a clear signal for the parent compound 2 was observed | peak for parent compound 2 in cell lysate (unstimulated RAW264.7 cells): not observed

Source: patent US12383535B2, “Hydrogen peroxide-responsive KEAP1-NRF2 ppi inhibitor prodrug, and preparation method therefor” (CHINA PHARMACEUTICAL UNIVERSITY, priority 2019, dated 2025)
